PubChem BioAssay AID1671195 | Yale University – 2021
The deposit covers about 22,000 reagents; below is an unselected part. Of all reagents, about 1,510 (6.9%) got an active call. 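Active includes knockdowns raising or lowering LDL uptake; positive z-scores mean more uptake, negative mean less.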

Screen: 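Genes whose knockdown alters LDL uptake in liver cancer cells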 (primary screen)
Cell system: human Huh7 hepatoma cells
Knock-down reagent: siRNA pool against human genes, 18 nM
Duration: about 2 to 2.5 days of knockdown, then 8 h LDL uptake
Challenge: DiI-labelled LDL at 30 µg/ml for 8 h, in lipoprotein-deficient serum medium
Read-out: 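Fluorescent LDL signal imaged in cells, scaled to the plate median, robust z-score for each replicate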
Reading the numbers: robust z-score: higher = more LDL uptake after knockdown
Active means: 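a gene counts as active if at least two replicate z-scores exceed ±2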

gene | robust z-score, replicate 1 | robust z-score, replicate 2 | robust z-score, replicate 3 | Call
LOC440478 (retired record) | -0.335 | -0.22 | -0.499 | inactive
IER5L (immediate early response 5 like) | 0.519 | 0.925 | 0.514 | inactive
LOC728114 | 0.0282 | -0.103 | -0.326 | inactive
TBC1D9B (TBC1 domain family member 9B) | 1.33 | -0.669 | 1.37 | inactive
SLC4A10 | 0.175 | 0.528 | 0.265 | inactive
IFT172 (intraflagellar transport 172) | 0.543 | 1.53 | 0.927 | inactive
ALDH9A1 (aldehyde dehydrogenase 9 family member A1) | -0.41 | -0.719 | -0.464 | inactive
NSUN6 (NOP2/Sun RNA methyltransferase 6) | -0.446 | -0.257 | -0.288 | inactive
SMAD5 (SMAD family member 5) | -0.229 | 0.0769 | -0.214 | inactive
KCNK3 (potassium two pore domain channel subfamily K member 3) | -0.00187 | -0.826 | 0.303 | inactive
SRSF2P1 (SRSF2 pseudogene 1) | -0.916 | -0.931 | -0.286 | inactive
SPRING1 (SREBF pathway regulator in golgi 1) | 0.598 | 1.45 | 0.787 | inactive
RTP5 (receptor transporter protein 5 (putative)) | -0.0385 | -0.106 | -0.199 | inactive
PATL1 (PAT1 homolog 1, processing body mRNA decay factor) | 0.0558 | -0.011 | 0.0251 | inactive
KATNAL1 (katanin catalytic subunit A1 like 1) | 0.497 | 0.0522 | 0.108 | inactive
AIRE (autoimmune regulator) | -0.00116 | -0.0907 | 0.0264 | inactive
PCNX1 (pecanex 1) | -0.733 | 1.11 | -1.32 | inactive
CHCHD1 (coiled-coil-helix-coiled-coil-helix domain containing 1) | -1.72 | -1.04 | -1.05 | inactive
SLEAR (STAT1 regulated ILF2 complex interacting lncRNA) | -0.0686 | 0.0292 | 0.0799 | inactive
HBB (hemoglobin subunit beta) | 2.27 | -0.36 | -2.61 | inactive
POLD1 (DNA polymerase delta 1, catalytic subunit) | -0.0472 | -0.198 | -0.0188 | inactive
GSDME (gasdermin E) | -0.0897 | 0.429 | -1.25 | inactive
CD53 (CD53 molecule) | -0.969 | -0.365 | -1.1 | inactive
MCM5 (minichromosome maintenance complex component 5) | -0.767 | -0.0748 | -0.711 | inactive
EFHD2 (EF-hand domain family member D2) | -0.461 | -0.777 | -1.07 | inactive
TRAK2 (trafficking kinesin protein 2) | -0.327 | 0.519 | -0.607 | inactive
SLIT1 (slit guidance ligand 1) | -0.0654 | -0.228 | -0.309 | inactive
ZNF764 (zinc finger protein 764) | -0.697 | -0.43 | -0.68 | inactive
HPN (hepsin) | -0.283 | -0.527 | 0.0913 | inactive
TAF5L (TATA-box binding protein associated factor 5 like) | -0.754 | -0.663 | -0.61 | inactive
LGALS2 (galectin 2) | 1.15 | 1.05 | 0.527 | inactive
CRTC2 (CREB regulated transcription coactivator 2) | 0.0662 | 0.0858 | 0.0698 | inactive
IKBKE (inhibitor of nuclear factor kappa B kinase subunit epsilon) | 0.719 | 0.189 | 0.0322 | inactive
ENOX2 (ecto-NOX disulfide-thiol exchanger 2) | -0.181 | -0.504 | -0.221 | inactive
ALOX12B (arachidonate 12-lipoxygenase, 12R type) | -0.337 | -0.611 | -1.19 | inactive
PSG3 (pregnancy specific beta-1-glycoprotein 3) | -0.27 | -0.305 | 0.397 | inactive
RCN3 (reticulocalbin 3) | -0.974 | -0.785 | -0.704 | inactive
LOC440111 (retired record) | 0.397 | 0.251 | 0.37 | inactive
KRTAP13-2 (keratin associated protein 13-2) | 1.16 | 1.56 | 1.15 | inactive
LOC164036 (retired record) | 0.723 | 0.988 | 1.87 | inactive
CDC25A (cell division cycle 25A) | -0.869 | -0.215 | -0.782 | inactive
PRMT3 (protein arginine methyltransferase 3) | 1.01 | 1.07 | 1.03 | inactive
TAX1BP1 (Tax1 binding protein 1) | -0.535 | -0.027 | 0.194 | inactive
SCN11A (sodium voltage-gated channel alpha subunit 11) | 3.31 | 3.68 | 3.16 | active
LAMA2 (laminin subunit alpha 2) | 0.0468 | 0.0407 | -0.266 | inactive
PDP2 (pyruvate dehydrogenase phosphatase catalytic subunit 2) | -0.0458 | 0.488 | -0.148 | inactive
STAR (steroidogenic acute regulatory protein) | 0.299 | 0.648 | -0.158 | inactive
SLC5A4 | 0.0858 | 0.437 | 0.439 | inactive
GDPD4 (glycerophosphodiester phosphodiesterase domain containing 4) | -0.442 | -1.86 | -1.05 | inactive
SLC17A9 | -1.2 | -1.27 | -1.95 | inactive
HMCES (5-hydroxymethylcytosine binding, ES cell specific) | 0.62 | 0.0745 | -0.305 | inactive
PKP3 (plakophilin 3) | 1.96 | 1.47 | 2.66 | inactive
ZNF519 (zinc finger protein 519) | 3.28 | 2.32 | 2.69 | active
HASPIN (histone H3 associated protein kinase) | 1.37 | 0.276 | 0.398 | inactive
DEFB103B (defensin beta 103B) | 1.1 | -1.2 | 0.905 | inactive
SEMA5A (semaphorin 5A) | -1.5 | -1.27 | -1.91 | inactive
UBE2Q1 (ubiquitin conjugating enzyme E2 Q1) | 0.483 | 0.765 | -0.814 | inactive
UNC13D (unc-13 homolog D) | 0.115 | -0.481 | -0.569 | inactive
FBXL13 (F-box and leucine rich repeat protein 13) | 0.358 | 0.372 | 0.823 | inactive
HCRT (hypocretin neuropeptide precursor) | 3.15 | 2.42 | 2.96 | active
LYG1 (lysozyme g1) | 0.0491 | -0.601 | -1.04 | inactive
KEAP1 (kelch like ECH associated protein 1) | 1.94 | 1.94 | 1.49 | inactive
ZMYM3 (zinc finger MYM-type containing 3) | -0.595 | -1.1 | -2.01 | inactive
ARHGEF40 (Rho guanine nucleotide exchange factor 40) | -1.65 | -0.861 | -1.81 | inactive
OVCH2 (ovochymase 2) | -0.522 | 0.376 | -0.0276 | inactive
CDYL2 (chromodomain Y like 2) | -0.418 | -0.785 | -0.438 | inactive
MT1A (metallothionein 1A) | -0.204 | -0.171 | -0.13 | inactive
PCDHB11 (protocadherin beta 11) | -1.14 | -1.05 | -1.03 | inactive
